Results are given in words; binding and its absence hold for the method and conditions named. For part of these data: In cells and extracts the contact can be indirect. Some results given as binding are weak or reduced against the parent protein; the word gives no strength.
B1: TCF3 (protein, UniProt Q9Z1J1 1-584)
chain: MPQLGGGRGGAGGGGGGSGAGATSGGDDLGANDELIPFQDEGGEEQEPSSDTASAQRDLDEVKSSLVNESENQSSSSDSEAERRPQPARDAFQKPRDYFAEVRRPQDGAFFKGGAYPGYPFLMIPDLSSPYLSNGPLSPGGARTYLQMKWPLLDVPSSATVKDTRSPSPAHLSNKVPVVQHPHHMHPLTPLITYSNDHFSPASPPTHLSPEIDPKTGIPRPPHPSELSPYYPLSPGAVGQIPHPLGWLVPQQGQPMYSLPPGGFRHPYPALAMNASMSSLVSSRFPHMVAPAHPGLPTSGIPHPAIVSPIVKQEPAAPSLSPAVSAKSPVTVKKEEEKKPHVKKPLNAFMLYMKEMRAKVVAECTLKESAAINQILGRKWHNLSREEQAKYYELARKERQLHAQLYPTWSARDNYGKKKKRKREKQLSQTQSQQQIQEAEGALASKSKKPCIQYLPPEKPCDSPASSHGSALDSPATPSAALASPAAPAATHSEQAQPLSLTTKPEARAQLALHSAAFLSAKAAASNSSQMGSQPPLLSRPLPLGSMPAALLTSPPTFPATLHAHQALPVLQAQPLSLVTKSAH
B2: p73 (protein, UniProt Q9JJP2 1-631)
chain: MAQTSSSSSSTFEHLWSSLEPDSTYFDLPQPSQGTSEASGSEESNMDVFHLQGMAQFNLLSSAMDQMGSRAAPASPYTPEHAASAPTHSPYAQPSSTFDTMSPAPVIPSNTDYPGPHHFEVTFQQSSTAKSATWTYSPLLKKLYCQIAKTCPIQIKVSTPPPPGTAIRAMPVYKKAEHVTDIVKRCPNHELGRDFNEGQSAPASHLIRVEGNNLAQYVDDPVTGRQSVVVPYEPPQVGTEFTTILYNFMCNSSCVGGMNRRPILVIITLETRDGQVLGRRSFEGRICACPGRDRKADEDHYREQQALNESTTKNGAASKRAFKQSPPAIPALGTNVKKRRHGDEDMFYMHVRGRENFEILMKVKESLELMELVPQPLVDSYRQQQQQQLLQRPSHLQPPSYGPVLSPMNKVHGGVNKLPSVNQLVGQPPPHSSAAGPNLGPMGSGMLNSHGHSMPANGEMNGGHSSQTMVSGSHCTPPPPYHADPSLVSFLTGLGCPNCIECFTSQGLQSIYHLQNLTIEDLGALKVPDQYRMTIWRGLQDLKQSHDCGQQLLRSSSNAATISIGGSGELQRQRVMEAVHFRVRHTITIPNRGGAGAVTGPDEWADFGFDLPDCKSRKQPIKEEFTETESH

Protein sequences, listed by entry. Tags and fused reporters are not part of them.
UniProt P46938: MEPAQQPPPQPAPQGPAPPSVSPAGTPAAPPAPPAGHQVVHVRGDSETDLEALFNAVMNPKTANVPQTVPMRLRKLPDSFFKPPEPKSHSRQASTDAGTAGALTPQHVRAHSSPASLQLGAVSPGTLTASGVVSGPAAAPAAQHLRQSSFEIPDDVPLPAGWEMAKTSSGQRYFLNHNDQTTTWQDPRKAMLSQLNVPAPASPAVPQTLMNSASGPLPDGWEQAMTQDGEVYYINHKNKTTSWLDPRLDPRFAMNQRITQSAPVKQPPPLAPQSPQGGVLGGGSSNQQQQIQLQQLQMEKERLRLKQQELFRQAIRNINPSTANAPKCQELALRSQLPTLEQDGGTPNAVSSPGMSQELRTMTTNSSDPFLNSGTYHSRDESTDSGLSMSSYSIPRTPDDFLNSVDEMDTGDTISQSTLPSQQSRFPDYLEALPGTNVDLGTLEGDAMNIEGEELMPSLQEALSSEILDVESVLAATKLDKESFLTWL
UniProt P48301: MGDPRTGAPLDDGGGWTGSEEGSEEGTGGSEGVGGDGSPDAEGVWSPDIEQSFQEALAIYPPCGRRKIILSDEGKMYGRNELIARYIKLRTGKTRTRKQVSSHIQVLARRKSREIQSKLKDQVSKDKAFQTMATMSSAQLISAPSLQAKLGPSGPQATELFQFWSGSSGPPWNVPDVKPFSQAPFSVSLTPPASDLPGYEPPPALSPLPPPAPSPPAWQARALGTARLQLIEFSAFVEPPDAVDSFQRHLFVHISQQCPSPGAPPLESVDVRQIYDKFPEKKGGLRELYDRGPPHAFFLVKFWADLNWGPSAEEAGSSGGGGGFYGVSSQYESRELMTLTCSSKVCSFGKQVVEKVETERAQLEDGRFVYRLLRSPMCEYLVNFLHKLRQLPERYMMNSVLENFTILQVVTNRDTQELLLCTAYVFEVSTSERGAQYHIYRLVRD
UniProt Q02248: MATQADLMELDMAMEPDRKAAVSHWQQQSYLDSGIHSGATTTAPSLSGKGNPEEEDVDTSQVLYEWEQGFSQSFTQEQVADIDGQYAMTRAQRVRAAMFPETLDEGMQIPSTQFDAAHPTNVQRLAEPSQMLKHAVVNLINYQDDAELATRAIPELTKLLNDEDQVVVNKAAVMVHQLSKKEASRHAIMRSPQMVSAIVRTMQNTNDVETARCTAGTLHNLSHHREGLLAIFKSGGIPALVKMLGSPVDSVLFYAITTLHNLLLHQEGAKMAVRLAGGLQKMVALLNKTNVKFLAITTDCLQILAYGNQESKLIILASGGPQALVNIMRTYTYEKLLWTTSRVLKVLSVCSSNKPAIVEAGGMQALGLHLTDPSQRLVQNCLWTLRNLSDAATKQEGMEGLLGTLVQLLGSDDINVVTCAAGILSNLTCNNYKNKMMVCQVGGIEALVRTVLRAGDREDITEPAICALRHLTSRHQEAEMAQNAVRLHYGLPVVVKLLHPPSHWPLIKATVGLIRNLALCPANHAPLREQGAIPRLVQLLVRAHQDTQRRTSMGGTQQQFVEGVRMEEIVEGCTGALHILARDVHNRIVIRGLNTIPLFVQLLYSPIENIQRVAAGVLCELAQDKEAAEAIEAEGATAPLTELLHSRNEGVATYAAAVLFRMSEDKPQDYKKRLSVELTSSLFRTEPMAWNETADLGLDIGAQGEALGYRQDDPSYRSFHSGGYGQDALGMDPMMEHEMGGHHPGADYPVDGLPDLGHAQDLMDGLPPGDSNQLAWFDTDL

Experiments:
FLAG–YAP (human) = FLAG–YAP (human) (UniProt P46937); test: co-IP; FLAG immunoprecipitates from ESC transiently transfected with FLAG–YAP or FLAG–YAP-S127A, with or without RASSF1A; western blot
FLAG–YAP-S127A (human) = FLAG–YAP-S127A (human) (UniProt P46937); test: as above
[1] = target: YAP (mouse (endogenous in E14Tg2a ESC and in iPSC from MEFs)) (UniProt P46938); test: SEC; whole cell extracts of ESC in the presence of LIF on Superdex 200 HR 10/30 (20 mM HEPES pH 7.5, 150 mM NaCl, 0.5 mM EDTA, 0.25 mM DTT); fractions western blotted
[2] = target: YAP (mouse (endogenous in E14Tg2a ESC and in iPSC from MEFs)) (UniProt P46938); test: SEC; whole cell extracts of differentiating ESC (-LIF day 4) on Superdex 200 HR 10/30 (20 mM HEPES pH 7.5, 150 mM NaCl, 0.5 mM EDTA, 0.25 mM DTT); fractions western blotted
[3] = target: YAP (mouse (endogenous in E14Tg2a ESC and in iPSC from MEFs)) (UniProt P46938); test: co-IP; anti-YAP or anti-TEF-4 (TEAD2) immunoprecipitates from ESC lysates (1% NP40, 150 mM NaCl, 3 h at 4 °C), western blot; cells with siRassf1A, shRassf1A, YAP depletion or RASSF1A expression
[4] = target: TEAD2 (mouse (endogenous in E14Tg2a ESC and in iPSC from MEFs)) (UniProt P48301); test: as above
[5] = target: YAP (mouse (endogenous in E14Tg2a ESC and in iPSC from MEFs)) (UniProt P46938); test: as above; remark: listed apart in the source
[6] = target: pS127-YAP (mouse (endogenous in E14Tg2a ESC)) (UniProt P46938); test: proximity ligation; Duolink PLA with anti-pS127 YAP and anti-p73 on fixed ESC expressing RASSF1A
[7] = target: pS127-YAP (mouse (endogenous in E14Tg2a ESC)) (UniProt P46938); test: proximity ligation; Duolink PLA with anti-pS127 YAP and anti-p73 on fixed ESC not expressing RASSF1A

Molecule | binding (FLAG–YAP (human)) | binding (FLAG–YAP-S127A (human)) | binding [1] | binding [2] | binding [3] | binding [4] | binding [5] | binding [6] | binding [7]
TEAD2 (from UniProt P48301 1-445) | binds | binds | binds | no binding (condition: differentiation (-LIF day 4)) | binds |  |  |  | 
β-catenin (from UniProt Q02248 1-781) | binds | binds | binds | no binding (condition: differentiation (-LIF day 4)) | binds |  |  |  | 
B1 |  |  | binds | no binding (condition: differentiation (-LIF day 4)) |  | binds | binds |  | 
B2 | binds |  |  |  |  |  | binds | binds | no binding (condition: cells not expressing RASSF1A)
